This passage reports binding results from publication PMC11998537.

Sequences of proteins named here, by UniProt entry; tags and fusion partners are left off. A change or cut given only in a name is not applied to a line headed by its entry. Residues count along the entry.
UniProt P03431: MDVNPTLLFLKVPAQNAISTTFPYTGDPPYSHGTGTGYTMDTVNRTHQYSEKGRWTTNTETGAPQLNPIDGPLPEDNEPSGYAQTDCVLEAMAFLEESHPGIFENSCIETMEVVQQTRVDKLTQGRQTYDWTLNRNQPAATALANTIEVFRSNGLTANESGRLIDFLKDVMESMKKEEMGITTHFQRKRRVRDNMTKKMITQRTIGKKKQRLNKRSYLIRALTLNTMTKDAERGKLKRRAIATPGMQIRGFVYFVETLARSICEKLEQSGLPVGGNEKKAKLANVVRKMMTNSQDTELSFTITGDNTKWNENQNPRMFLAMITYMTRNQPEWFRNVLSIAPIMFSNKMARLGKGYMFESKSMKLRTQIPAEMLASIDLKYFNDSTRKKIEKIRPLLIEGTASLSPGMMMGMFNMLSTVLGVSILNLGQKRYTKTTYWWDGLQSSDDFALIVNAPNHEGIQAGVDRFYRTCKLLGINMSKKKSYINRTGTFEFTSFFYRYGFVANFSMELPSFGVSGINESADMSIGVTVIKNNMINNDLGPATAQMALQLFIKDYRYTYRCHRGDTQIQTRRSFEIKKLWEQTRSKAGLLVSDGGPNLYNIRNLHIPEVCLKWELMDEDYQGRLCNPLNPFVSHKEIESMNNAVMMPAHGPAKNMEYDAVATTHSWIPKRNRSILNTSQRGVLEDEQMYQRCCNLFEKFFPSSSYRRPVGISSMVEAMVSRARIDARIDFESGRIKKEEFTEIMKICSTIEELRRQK
Flag-PB1 (1-265) (influenza A/Puerto Rico/8/1934 (PR8, H1N1)): residues 1-265 of P03431

No constants are given. Whether binding was seen depends on the method and setting. In cells and extracts the contact can be indirect. Some binding calls cover weakened binding; strength is not graded here. Where a sequence is shown, tags or fusion partners need not be part of it.

Test [1] has as its target Flag-PB1 (1-265) (influenza A/Puerto Rico/8/1934 (PR8, H1N1)) (UniProt P03431). The test is described as follows: co-IP.
The target of test [2] is Flag-tagged PB1 (polymerase basic protein 1) of influenza A/Puerto Rico/8/1934 (PR8, H1N1) (influenza A/Puerto Rico/8/1934 (PR8, H1N1)) (UniProt P03431). The test is described as follows: co-IP.

B1: Myc-tagged DCAF7 (DDB1 and CUL4-associated factor 7) (protein, UniProt P61962 1-342)
chain: MSLHGKRKEIYKYEAPWTVYAMNWSVRPDKRFRLALGSFVEEYNNKVQLVGLDEESSEFICRNTFDHPYPTTKLMWIPDTKGVYPDLLATSGDYLRVWRVGETETRLECLLNNNKNSDFCAPLTSFDWNEVDPYLLGTSSIDTTCTIWGLETGQVLGRVNLVSGHVKTQLIAHDKEVYDIAFSRAGGGRDMFASVGADGSVRMFDLRHLEHSTIIYEDPQHHPLLRLCWNKQDPNYLATMAMDGMEVVILDVRVPCTPVARLNNHRACVNGIAWAPHSSCHICTAADDHQALIWDIQQMPRAIEDPILAYTAEGEINNVQWASTQPDWIAICYNNCLEILRV
Turning to B1, the binding entry in test [1] and in test [2] was “binds” each time.
